The values that follow come from article doi:10.1101/2024.07.03.601885.

The chains behind the UniProt entries cited, without tags or fusion partners.
UniProt Q9Z148: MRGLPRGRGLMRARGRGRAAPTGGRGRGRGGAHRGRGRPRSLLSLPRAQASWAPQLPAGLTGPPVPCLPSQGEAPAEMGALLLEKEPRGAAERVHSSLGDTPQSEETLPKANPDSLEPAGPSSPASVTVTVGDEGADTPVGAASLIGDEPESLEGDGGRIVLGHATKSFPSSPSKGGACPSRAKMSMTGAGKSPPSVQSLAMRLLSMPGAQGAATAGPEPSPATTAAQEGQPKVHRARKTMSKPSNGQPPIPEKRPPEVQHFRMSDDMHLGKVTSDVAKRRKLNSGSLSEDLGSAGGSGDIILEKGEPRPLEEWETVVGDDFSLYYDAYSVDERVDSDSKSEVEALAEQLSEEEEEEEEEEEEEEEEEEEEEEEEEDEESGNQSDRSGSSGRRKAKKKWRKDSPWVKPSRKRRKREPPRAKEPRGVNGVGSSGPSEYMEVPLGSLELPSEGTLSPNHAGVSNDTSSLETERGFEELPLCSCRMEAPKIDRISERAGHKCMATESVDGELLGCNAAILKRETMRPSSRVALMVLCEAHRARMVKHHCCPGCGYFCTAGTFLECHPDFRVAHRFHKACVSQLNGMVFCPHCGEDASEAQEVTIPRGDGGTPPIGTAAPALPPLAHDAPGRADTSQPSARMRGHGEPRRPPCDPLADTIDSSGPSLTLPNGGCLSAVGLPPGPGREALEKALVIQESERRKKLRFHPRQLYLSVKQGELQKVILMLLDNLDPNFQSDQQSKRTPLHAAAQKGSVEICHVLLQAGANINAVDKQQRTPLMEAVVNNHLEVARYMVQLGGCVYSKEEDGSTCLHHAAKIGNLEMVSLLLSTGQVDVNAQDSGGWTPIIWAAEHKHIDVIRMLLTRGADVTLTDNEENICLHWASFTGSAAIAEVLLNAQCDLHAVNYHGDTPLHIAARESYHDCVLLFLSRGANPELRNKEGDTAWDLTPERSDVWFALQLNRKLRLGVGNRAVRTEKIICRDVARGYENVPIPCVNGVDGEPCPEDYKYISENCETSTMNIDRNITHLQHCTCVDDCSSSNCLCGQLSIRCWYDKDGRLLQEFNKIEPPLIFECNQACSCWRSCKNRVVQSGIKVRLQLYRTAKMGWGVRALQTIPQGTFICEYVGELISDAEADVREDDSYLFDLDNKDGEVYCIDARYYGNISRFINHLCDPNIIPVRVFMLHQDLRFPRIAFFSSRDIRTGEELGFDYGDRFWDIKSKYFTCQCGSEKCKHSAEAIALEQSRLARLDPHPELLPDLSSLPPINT
UniProt Q61937: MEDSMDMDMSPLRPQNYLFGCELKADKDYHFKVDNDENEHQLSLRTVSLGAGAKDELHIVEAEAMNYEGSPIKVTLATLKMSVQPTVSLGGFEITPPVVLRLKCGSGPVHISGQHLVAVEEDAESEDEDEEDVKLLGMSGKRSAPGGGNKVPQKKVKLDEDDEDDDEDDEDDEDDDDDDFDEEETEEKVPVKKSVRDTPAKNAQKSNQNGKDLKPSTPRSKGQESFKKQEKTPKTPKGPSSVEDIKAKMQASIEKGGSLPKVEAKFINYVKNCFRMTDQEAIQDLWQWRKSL
UniProt P06748: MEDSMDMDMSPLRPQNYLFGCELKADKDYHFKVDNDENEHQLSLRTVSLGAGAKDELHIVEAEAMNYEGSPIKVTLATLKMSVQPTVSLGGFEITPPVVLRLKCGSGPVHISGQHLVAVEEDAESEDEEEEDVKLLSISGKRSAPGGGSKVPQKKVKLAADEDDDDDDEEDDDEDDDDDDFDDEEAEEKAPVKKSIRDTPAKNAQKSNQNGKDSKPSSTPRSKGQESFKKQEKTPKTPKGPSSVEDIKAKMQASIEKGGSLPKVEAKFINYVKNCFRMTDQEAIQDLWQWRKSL

These are yes or no findings as the source states them, for the method shown. For part of these data: Binding seen in cells or lysates may run through a third protein. Some results given as binding are weak or reduced against the parent protein; the word gives no strength.

The target of one test is HA-tagged G9a (UniProt Q9Z148). Nature of the test: co-IP.
Test [1] has as its target nucleophosmin (NPM1), endogenous in mouse ESCs (mouse (endogenous in E14 ESCs)) (UniProt Q61937). In words: native gel or EMSA.

Consider “mCherry-NPM1 wild type (from UniProt Q61937 1-292)”, for which, in the test with HA-tagged G9a, the binding entry was “binds”.

In the case of “nucleophosmin (NPM1), endogenous in mouse ESCs (from UniProt Q61937 1-292)”, the binding entry in test [1] was “binds”.

Take “NPM1, endogenous in HEK293T cells (from UniProt P06748 1-294)”: the binding entry with HA-tagged G9a was “binds”.
